Experimental data published in patent publication US8309739B2, “Chemical compounds” (Syngenta Limited, priority 2005, dated 2012).
Some entries share one result that the patent states for a list of compounds.

Columns and labels:
[1] = tested on: Myzus persicae (Green Peach Aphid); test: Myzus persicae test on sprayed sunflower leaf discs; assay type: in vivo; details: sunflower leaf discs sprayed at 200/50/12.5 ppm; aphid population of mixed ages; 6 DAT; mortality
[2] = tested on: Tetranychus urticae (Two-Spotted Spider Mite); test: Tetranychus urticae test on sprayed bean leaf discs; assay type: in vivo; details: bean leaf discs sprayed at 200/50/12.5 ppm; mite populations of mixed ages; 8 days; egg, larval and adult mortality

SMILES	control of Myzus persicae [1]	control of Tetranychus urticae [2]
COC1Cc2ccccc2C1NC1=NCCS1 (stereo not shown) [Compound 12.010]	at least 80%	–
O=C(OC1Cc2ccccc2C1NC1=NCCS1)c1ccccc1 (stereo not shown) [Compound 12.011]	at least 80%	–
CCc1cccc2c1CCC2NC1=NCCS1 (stereo not shown) [Compound 2.014]	at least 80%	–
CC(=O)OC1Cc2ccccc2C1NC1=NCCS1 (stereo not shown) [Compound 12.008]	at least 80%	–
Fc1ccc(F)c2c1CCC2NC1=NCCS1 (stereo not shown) [Compound 2.025]	at least 80%	–
Fc1cc(F)c2c(c1F)C(NC1=NCCS1)CC2 (stereo not shown) [Compound 2.030]	at least 80%	at least 80%
Fc1cccc2c1CCC2NC1=NCCS1 (stereo not shown) [Compound 2.019]	at least 80%	at least 80%
Cc1cccc2c1C(NC1=NCCS1)CC2 (stereo not shown) [Compound 2.016]	at least 80%	–
ON(C1=NCCS1)C1CCc2c(F)cccc21 (stereo not shown) [Compound 7.006]	at least 80%	at least 80%
COC(=O)N1CCS/C1=N\C1CCc2ccccc21 (stereo not shown) [Compound 10.015]	at least 80%	–
CC(=O)N1CCS/C1=N\C1CCc2ccccc21 (stereo not shown) [Compound 10.025]	at least 80%	–
Fc1cc(Br)cc2c1CCC2NC1=NCCS1 (stereo not shown) [Compound 2.026]	at least 80%	–
FC(F)c1cccc2c1CCC2NC1=NCCS1 (stereo not shown) [Compound 2.058]	at least 80%	at least 80%
Clc1cccc2c1CCC2NC1=NCCS1 (stereo not shown) [Compound 2.020]	at least 80%	at least 80%
Fc1cc(F)c2c(c1)C(NC1=NCCS1)CC2 (stereo not shown) [Compound 2.024]	at least 80%	at least 80%
O=C(c1ccccc1)N1CCS/C1=N\C1CCc2ccccc21 (stereo not shown) [Compound 10.014]	at least 80%	–
CCOC(=O)N1CCS/C1=N\C1CCc2ccccc21 (stereo not shown) [Compound 10.020]	at least 80%	–
Fc1cccc2c1C(NC1=NCCS1)CC2 (stereo not shown) [Compound 2.052]	at least 80%	–
CC1CC(N(O)C2=NCCS2)c2ccccc21 (stereo not shown) [Compound 7.008]	at least 80%	–
Cc1cccc2c1CCC2N(O)C1=NCCS1 (stereo not shown) [Compound 7.010]	at least 80%	at least 80%
N#CN1CCSC1=NC1CCc2ccccc21 (stereo not shown) [Compound 8.017, 2-(Indan-1-ylimino)-thiazolidine-3-carbonitrile]	at least 80%	–
c1ccc2c(c1)CCC2NC1=NCCS1 (stereo not shown) [Compound 2.002, (4,5-Dihydro-thiazol-2-yl)-indan-1-yl-amine]	at least 80%	–
Cc1cc(F)c2c(c1)C(NC1=NCCS1)CC2 (stereo not shown) [Compound 2.031]	at least 80%	–
Fc1cccc2c1CC(F)C2NC1=NCCS1 (stereo not shown) [Compound 2.067]	–	at least 80%
